We go through one substance from publication PMC7951919.

Sequences of proteins named here, by UniProt entry; tags and fusion partners are left off.
UniProt P05198: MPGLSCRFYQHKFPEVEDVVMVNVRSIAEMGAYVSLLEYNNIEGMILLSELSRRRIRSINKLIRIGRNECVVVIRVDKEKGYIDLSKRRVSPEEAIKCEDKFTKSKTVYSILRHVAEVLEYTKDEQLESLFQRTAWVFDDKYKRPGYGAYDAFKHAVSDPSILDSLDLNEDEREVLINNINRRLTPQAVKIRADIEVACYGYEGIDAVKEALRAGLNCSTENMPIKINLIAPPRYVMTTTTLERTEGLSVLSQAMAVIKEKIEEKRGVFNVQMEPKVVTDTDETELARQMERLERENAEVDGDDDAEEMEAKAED
UniProt Q7KZI7: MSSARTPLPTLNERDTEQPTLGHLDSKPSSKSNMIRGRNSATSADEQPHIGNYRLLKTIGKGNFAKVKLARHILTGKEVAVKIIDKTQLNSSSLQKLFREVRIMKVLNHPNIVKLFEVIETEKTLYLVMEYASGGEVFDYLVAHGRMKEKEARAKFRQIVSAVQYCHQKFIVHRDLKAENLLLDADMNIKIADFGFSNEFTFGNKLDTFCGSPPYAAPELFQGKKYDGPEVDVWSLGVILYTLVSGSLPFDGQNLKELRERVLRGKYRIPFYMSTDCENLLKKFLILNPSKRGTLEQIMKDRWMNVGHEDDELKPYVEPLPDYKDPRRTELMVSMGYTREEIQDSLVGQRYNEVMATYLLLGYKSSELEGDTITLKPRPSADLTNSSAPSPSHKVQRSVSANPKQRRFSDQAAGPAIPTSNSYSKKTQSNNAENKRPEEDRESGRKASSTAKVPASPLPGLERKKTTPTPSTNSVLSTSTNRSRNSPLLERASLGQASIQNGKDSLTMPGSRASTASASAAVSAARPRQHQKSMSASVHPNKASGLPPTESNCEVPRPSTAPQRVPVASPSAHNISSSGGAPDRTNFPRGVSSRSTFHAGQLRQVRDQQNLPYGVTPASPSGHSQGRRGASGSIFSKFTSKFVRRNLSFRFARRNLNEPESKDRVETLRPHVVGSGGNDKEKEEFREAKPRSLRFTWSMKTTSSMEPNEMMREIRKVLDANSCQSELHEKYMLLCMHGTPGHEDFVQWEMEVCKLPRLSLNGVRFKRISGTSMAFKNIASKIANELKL

Results are given in words; binding and its absence hold for the method and conditions named. In cells and extracts the contact can be indirect. Some entries that bind do so weakly or less than the wild type.

This assay deals with eukaryotic initiation factor 2 alpha (eIF2α) wild type fused with HaloTag (UniProt P05198). In words: FRET or BRET; NanoBRET in live HEK293 cells cotransfected with a NanoLuc fusion (donor) and a HaloTag fusion (acceptor); donor saturation assay and quantitative NanoBRET (mean corrected milliBRET); read at 460 nm and 618 nm.

For the substance “microtubule affinity-regulating kinase 2 (MARK2) fused with NanoLuc (from UniProt Q7KZI7 1-788) (enzyme)”, the binding result is on record as “binds”.
